These are yes or no findings as the source states them, for the method shown. Binding seen in cells or lysates may run through a third protein. Binding can be weak; no strength is given.

The chains behind the UniProt entries cited, without tags or fusion partners. Where a name states a change or a piece, a line headed by the entry shows the natural chain unless it says otherwise.
UniProt Q9UDY2: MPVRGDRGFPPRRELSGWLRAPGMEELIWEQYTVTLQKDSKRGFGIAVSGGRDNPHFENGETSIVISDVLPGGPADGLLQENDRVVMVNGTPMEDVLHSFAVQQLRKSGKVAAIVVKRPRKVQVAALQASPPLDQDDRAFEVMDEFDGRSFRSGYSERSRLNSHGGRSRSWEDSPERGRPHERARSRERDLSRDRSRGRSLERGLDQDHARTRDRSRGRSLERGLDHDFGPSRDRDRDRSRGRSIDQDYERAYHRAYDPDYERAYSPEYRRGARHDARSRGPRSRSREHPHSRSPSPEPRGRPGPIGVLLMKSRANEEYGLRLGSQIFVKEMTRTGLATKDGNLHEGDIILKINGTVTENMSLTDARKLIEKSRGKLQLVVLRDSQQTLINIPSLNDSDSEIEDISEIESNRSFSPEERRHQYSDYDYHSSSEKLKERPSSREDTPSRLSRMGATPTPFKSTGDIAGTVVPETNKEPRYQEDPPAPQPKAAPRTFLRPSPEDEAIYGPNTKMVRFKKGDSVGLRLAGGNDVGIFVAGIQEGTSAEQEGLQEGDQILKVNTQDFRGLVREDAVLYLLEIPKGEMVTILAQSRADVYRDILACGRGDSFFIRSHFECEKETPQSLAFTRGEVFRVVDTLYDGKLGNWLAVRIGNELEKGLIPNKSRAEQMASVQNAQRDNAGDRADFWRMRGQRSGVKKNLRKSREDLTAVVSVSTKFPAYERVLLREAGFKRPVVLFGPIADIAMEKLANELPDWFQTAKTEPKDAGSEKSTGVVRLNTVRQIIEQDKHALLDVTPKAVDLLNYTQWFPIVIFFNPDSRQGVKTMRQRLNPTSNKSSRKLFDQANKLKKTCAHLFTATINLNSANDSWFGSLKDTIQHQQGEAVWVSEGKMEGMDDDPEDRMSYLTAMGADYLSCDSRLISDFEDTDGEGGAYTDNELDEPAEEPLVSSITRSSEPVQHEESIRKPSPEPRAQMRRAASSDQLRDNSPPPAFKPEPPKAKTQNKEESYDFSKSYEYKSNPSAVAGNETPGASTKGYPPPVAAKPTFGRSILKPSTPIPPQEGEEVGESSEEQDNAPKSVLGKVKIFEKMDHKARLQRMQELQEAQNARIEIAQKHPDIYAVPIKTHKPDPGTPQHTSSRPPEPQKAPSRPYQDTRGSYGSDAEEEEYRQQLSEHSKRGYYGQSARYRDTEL
UniProt O54851: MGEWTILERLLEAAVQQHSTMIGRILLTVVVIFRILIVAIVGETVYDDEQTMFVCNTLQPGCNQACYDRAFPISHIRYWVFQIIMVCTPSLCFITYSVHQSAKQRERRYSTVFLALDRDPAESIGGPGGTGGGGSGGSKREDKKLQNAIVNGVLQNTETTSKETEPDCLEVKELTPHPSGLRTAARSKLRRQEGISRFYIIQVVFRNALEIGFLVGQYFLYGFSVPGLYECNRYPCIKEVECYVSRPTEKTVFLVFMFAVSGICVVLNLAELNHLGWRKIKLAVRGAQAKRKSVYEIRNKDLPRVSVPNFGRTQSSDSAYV

This assay addresses first PDZ domain of ZO-2 (UniProt Q9UDY2). The assay is described as follows: co-IP.
Take “Connexin 36 (wild type) (from UniProt O54851 1-321)”: the binding result was “binds”.
Regarding Cx36 A319T (from UniProt O54851 1-321), the binding entry is “binds”.
For Cx36 D317A (from UniProt O54851 1-321), the binding entry was “binds”.
As for Cx36 D317F (from UniProt O54851 1-321), the binding result is listed as “binds”.
With “Cx36 S318ter (from UniProt O54851 1-317) (domain or fragment)”, the binding result was “no binding”.
